Like-named read-outs stand apart in the source and are kept apart here. These are yes or no findings as the source states them, for the method shown. In cells and extracts the contact can be indirect. These calls come from enrichment with a bait or labelling near it, and not all partners need be listed. Tags and fused reporters may be left off the sequences shown.
T1: DCBLD1-MYC-FLAG (human Discoidin, CUB, and LCCL domain-containing protein 1) (human) (UniProt Q8N8Z6)
T1 sequence: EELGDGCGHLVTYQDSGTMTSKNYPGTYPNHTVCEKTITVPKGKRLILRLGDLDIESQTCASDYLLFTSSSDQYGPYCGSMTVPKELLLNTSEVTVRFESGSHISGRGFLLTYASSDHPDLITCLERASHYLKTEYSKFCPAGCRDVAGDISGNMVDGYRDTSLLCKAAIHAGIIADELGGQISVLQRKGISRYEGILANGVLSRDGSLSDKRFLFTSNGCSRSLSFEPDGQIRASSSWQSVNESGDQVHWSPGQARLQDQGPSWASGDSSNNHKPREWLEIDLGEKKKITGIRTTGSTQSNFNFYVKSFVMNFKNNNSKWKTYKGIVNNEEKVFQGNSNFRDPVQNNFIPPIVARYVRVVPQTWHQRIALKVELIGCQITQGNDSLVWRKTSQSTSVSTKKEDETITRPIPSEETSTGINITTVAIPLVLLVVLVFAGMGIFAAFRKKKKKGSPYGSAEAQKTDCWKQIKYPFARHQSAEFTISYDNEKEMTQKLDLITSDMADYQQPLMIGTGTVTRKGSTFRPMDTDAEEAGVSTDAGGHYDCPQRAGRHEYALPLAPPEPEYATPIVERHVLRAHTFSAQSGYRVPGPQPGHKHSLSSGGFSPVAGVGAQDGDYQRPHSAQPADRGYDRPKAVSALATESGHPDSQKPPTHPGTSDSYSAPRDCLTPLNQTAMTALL

Chains of the proteins cited; added tags and fusions are not shown. Lines headed by an entry give the natural chain unless they say otherwise; changes in a name come on top. Residues count along the entry.
UniProt Q13554: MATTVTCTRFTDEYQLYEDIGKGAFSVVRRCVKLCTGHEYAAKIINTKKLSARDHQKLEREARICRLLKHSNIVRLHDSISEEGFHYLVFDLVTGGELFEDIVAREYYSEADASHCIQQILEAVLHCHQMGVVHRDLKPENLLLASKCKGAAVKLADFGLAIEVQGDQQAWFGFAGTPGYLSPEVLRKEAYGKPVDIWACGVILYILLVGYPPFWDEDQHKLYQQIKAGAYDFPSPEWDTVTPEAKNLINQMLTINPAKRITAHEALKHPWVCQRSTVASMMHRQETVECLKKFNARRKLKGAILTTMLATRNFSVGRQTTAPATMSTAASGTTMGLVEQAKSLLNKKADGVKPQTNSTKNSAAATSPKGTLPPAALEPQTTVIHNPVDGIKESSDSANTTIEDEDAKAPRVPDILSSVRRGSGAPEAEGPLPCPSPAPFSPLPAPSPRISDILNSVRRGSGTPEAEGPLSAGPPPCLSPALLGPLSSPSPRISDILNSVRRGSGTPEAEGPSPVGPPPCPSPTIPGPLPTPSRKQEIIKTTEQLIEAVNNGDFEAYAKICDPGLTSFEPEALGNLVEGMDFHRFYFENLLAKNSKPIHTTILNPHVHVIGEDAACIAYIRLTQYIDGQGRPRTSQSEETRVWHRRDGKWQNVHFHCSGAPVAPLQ
UniProt P27824, residues 21-592: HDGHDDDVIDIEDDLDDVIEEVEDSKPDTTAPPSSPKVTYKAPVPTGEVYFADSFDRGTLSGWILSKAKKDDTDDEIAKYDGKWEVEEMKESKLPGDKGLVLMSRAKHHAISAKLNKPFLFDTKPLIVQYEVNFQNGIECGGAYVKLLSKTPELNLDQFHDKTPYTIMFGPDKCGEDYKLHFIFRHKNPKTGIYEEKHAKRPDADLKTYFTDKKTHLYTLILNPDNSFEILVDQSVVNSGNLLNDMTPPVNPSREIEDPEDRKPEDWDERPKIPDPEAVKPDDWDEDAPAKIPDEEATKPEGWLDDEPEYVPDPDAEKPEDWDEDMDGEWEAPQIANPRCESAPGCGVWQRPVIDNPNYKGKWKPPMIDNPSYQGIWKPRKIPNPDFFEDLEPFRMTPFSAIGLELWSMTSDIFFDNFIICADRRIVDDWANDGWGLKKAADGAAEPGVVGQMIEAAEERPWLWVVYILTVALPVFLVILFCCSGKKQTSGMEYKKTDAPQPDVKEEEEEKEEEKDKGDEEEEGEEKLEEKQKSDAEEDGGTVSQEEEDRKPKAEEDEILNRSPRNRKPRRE
UniProt P06241: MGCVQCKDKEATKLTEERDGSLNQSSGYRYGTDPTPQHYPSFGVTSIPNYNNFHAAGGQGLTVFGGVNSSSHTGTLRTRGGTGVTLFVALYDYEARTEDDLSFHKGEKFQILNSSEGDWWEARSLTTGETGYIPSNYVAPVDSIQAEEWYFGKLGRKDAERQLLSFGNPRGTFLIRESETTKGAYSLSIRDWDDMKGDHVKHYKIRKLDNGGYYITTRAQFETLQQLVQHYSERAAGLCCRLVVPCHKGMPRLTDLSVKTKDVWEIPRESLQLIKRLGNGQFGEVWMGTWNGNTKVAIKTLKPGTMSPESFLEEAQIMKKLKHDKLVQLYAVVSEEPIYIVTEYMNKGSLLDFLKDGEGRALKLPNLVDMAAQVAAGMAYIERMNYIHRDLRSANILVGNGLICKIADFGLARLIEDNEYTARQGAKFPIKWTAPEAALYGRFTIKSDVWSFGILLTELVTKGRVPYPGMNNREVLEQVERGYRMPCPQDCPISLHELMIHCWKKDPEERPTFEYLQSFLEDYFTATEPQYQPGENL
UniProt Q13557: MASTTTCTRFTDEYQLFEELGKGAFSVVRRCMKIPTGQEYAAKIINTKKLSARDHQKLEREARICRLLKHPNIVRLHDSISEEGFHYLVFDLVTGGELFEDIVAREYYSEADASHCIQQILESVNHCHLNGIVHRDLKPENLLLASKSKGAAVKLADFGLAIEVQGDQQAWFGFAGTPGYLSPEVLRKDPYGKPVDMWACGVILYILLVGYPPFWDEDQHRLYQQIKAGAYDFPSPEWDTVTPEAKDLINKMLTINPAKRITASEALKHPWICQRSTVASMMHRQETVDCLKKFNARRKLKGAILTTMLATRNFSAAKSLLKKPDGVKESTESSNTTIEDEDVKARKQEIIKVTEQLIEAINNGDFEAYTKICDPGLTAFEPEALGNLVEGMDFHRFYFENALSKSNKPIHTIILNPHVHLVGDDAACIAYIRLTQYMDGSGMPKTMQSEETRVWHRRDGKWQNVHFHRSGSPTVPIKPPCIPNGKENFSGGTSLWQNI
UniProt O00507: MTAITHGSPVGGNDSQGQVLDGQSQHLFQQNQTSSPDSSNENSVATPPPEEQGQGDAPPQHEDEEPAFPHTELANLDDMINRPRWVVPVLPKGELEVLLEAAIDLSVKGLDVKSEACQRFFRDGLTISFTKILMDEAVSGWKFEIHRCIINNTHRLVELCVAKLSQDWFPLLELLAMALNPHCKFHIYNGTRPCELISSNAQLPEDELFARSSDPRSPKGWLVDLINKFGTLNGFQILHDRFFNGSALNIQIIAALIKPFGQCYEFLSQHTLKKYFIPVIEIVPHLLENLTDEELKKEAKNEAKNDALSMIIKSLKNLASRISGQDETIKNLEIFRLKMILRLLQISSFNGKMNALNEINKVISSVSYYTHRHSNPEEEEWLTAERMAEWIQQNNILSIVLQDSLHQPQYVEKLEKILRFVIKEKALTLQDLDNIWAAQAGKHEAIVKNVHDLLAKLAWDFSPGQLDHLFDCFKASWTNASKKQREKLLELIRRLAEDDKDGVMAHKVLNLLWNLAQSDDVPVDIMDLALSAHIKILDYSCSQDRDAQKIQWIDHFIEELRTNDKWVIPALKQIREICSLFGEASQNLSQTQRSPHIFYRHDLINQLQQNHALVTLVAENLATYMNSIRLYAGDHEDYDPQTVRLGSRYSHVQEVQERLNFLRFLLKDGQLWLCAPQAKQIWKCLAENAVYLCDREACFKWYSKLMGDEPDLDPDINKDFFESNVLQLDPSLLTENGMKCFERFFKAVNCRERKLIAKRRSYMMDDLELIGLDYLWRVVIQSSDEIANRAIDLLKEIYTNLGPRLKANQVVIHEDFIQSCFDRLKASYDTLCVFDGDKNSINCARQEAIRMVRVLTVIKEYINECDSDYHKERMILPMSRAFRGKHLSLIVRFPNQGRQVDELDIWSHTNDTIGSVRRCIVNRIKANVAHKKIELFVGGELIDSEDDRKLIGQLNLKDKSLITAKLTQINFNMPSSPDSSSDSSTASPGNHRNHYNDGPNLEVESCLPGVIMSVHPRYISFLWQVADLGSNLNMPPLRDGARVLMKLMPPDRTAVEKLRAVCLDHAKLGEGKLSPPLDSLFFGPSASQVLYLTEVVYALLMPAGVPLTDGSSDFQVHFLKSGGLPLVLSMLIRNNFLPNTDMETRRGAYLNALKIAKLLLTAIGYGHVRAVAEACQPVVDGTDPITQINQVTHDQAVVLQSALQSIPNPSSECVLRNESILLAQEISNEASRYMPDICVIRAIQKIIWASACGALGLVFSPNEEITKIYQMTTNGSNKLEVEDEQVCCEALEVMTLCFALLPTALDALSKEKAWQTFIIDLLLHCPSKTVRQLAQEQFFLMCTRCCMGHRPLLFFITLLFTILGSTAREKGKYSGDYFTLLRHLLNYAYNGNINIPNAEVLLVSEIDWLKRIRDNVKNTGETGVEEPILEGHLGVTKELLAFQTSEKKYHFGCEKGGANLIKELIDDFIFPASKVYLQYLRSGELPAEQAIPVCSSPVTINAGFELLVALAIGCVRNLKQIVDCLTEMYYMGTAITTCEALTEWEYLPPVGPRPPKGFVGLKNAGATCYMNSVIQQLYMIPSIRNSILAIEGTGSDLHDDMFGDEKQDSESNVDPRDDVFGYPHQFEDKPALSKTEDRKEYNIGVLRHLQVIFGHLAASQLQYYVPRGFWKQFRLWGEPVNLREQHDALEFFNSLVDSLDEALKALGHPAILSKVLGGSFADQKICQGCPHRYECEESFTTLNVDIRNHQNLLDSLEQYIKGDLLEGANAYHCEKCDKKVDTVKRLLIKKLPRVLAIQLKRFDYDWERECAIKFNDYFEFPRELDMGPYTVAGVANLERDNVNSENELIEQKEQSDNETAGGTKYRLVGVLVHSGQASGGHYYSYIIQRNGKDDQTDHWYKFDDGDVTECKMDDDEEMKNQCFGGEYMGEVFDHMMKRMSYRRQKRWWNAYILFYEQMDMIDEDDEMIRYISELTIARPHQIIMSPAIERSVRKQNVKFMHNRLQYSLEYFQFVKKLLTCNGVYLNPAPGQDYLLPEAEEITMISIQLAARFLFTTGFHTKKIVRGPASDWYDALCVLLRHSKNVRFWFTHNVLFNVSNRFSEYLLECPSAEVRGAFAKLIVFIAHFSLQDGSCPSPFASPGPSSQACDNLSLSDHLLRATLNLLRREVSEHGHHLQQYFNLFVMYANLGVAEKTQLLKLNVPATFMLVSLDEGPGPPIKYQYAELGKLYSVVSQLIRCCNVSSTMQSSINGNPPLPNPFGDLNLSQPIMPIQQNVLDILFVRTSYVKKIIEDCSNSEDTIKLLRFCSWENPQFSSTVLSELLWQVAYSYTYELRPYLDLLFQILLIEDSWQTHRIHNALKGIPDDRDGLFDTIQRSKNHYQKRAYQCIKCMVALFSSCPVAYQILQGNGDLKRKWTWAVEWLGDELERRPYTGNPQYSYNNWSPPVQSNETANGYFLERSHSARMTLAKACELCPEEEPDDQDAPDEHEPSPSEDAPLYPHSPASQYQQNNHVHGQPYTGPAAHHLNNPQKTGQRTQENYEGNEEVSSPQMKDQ
UniProt P46108: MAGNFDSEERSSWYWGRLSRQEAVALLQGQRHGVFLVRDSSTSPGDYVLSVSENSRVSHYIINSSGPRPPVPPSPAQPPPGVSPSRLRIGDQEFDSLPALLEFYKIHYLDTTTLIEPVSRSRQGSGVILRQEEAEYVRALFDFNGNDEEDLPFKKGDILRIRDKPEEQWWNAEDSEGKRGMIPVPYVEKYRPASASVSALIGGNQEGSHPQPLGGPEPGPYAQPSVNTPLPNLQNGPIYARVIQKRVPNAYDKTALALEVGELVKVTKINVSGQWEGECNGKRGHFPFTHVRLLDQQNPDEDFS
UniProt P31946: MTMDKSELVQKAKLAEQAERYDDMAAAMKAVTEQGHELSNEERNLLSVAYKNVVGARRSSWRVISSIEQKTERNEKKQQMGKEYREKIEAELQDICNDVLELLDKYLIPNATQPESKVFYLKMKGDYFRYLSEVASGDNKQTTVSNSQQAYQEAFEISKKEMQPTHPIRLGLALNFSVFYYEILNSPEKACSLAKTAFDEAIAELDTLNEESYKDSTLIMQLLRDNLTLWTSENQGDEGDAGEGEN
UniProt P62258: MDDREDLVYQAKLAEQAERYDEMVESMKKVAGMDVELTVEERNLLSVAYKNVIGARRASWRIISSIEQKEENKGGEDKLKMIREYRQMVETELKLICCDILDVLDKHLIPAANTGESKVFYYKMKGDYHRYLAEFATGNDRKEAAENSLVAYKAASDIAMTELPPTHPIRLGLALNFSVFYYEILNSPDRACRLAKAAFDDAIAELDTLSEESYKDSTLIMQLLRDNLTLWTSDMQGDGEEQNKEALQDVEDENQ
UniProt P63104: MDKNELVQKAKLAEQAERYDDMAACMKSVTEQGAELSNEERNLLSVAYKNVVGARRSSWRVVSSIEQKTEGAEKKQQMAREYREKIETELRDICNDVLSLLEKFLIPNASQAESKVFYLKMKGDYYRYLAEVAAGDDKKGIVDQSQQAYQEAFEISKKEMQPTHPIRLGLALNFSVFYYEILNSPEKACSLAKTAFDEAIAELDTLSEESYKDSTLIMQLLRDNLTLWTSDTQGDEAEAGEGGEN
UniProt P46109: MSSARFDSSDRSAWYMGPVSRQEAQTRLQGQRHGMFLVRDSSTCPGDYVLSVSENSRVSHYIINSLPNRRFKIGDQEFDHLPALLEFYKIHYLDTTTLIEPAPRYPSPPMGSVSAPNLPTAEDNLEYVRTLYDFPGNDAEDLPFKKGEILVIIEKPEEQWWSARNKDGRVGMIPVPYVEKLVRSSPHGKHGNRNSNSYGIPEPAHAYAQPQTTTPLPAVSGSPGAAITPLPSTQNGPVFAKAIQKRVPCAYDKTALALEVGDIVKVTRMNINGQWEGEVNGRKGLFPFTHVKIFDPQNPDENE

T2: DCBLD2-FLAG-MYC (full-length human Discoidin, CUB, and LCCL domain-containing protein 2) (human) (UniProt Q96PD2)
T2 sequence: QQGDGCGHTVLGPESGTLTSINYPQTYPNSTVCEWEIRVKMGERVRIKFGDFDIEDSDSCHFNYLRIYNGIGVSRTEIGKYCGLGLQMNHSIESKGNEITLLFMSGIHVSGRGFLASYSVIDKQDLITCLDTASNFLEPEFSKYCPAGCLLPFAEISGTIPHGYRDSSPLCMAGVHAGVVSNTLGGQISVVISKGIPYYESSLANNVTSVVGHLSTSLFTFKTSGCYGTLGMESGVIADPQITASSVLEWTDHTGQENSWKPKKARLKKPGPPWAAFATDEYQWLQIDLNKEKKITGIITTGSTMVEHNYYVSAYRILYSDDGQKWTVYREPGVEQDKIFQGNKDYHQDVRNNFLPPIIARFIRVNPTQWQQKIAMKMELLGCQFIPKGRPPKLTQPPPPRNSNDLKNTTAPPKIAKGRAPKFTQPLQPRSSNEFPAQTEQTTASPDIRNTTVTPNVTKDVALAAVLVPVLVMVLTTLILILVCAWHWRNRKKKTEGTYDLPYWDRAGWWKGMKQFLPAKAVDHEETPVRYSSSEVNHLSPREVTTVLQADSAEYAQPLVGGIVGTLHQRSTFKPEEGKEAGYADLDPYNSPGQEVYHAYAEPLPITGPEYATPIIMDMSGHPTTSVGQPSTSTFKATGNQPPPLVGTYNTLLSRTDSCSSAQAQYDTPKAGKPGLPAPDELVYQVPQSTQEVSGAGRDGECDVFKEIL

B1: neutral α-glucosidase (GANAB) (enzyme, UniProt Q14697 29-944)
chain: ITLAVDRSNFKTCEESSFCKRQRSIRPGLSPYRALLDSLQLGPDSLTVHLIHEVTKVLLVLELQGLQKNMTRFRIDELEPRRPRYRVPDVLVADPPIARLSVSGRDENSVELTMAEGPYKIILTARPFRLDLLEDRSLLLSVNARGLLEFEHQRAPRVSQGSKDPAEGDGAQPEETPRDGDKPEETQGKAEKDEPGAWEETFKTHSDSKPYGPMSVGLDFSLPGMEHVYGIPEHADNLRLKVTEGGEPYRLYNLDVFQYELYNPMALYGSVPVLLAHNPHRDLGIFWLNAAETWVDISSNTAGKTLFGKMMDYLQGSGETPQTDVRWMSETGIIDVFLLLGPSISDVFRQYASLTGTQALPPLFSLGYHQSRWNYRDEADVLEVDQGFDDHNLPCDVIWLDIEHADGKRYFTWDPSRFPQPRTMLERLASKRRKLVAIVDPHIKVDSGYRVHEELRNLGLYVKTRDGSDYEGWCWPGSAGYPDFTNPTMRAWWANMFSYDNYEGSAPNLFVWNDMNEPSVFNGPEVTMLKDAQHYGGWEHRDVHNIYGLYVHMATADGLRQRSGGMERPFVLARAFFAGSQRFGAVWTGDNTAEWDHLKISIPMCLSLGLVGLSFCGADVGGFFKNPEPELLVRWYQMGAYQPFFRAHAHLDTGRREPWLLPSQHNDIIRDALGQRYSLLPFWYTLLYQAHREGIPVMRPLWVQYPQDVTTFNIDDQYLLGDALLVHPVSDSGAHGVQVYLPGQGEVWYDIQSYQKHHGPQTLYLPVTLSSIPVFQRGGTIVPRWMRVRRSSECMKDDPITLFVALSPQGTAQGELFLDDGHTFNYQTRQEFLLRRFSFSGNTLVSSSADPEGHFETPIWIERVVIIGAGKPAAVVLQTKGSPESRLSFQHDPETSVLVLRKPGINVASDWSIHLR
B2: E3-independent E2 ubiquitin-conjugating enzyme (UBE2O) (enzyme, UniProt Q9C0C9 1-1292)
chain: MADPAAPTPAAPAPAQAPAPAPEAVPAPAAAPVPAPAPASDSASGPSSDSGPEAGSQRLLFSHDLVSGRYRGSVHFGLVRLIHGEDSDSEGEEEGRGSSGCSEAGGAGHEEGRASPLRRGYVRVQWYPEGVKQHVKETKLKLEDRSVVPRDVVRHMRSTDSQCGTVIDVNIDCAVKLIGTNCIIYPVNSKDLQHIWPFMYGDYIAYDCWLGKVYDLKNQIILKLSNGARCSMNTEDGAKLYDVCPHVSDSGLFFDDSYGFYPGQVLIGPAKIFSSVQWLSGVKPVLSTKSKFRVVVEEVQVVELKVTWITKSFCPGGTDSVSPPPSVITQENLGRVKRLGCFDHAQRQLGERCLYVFPAKVEPAKIAWECPEKNCAQGEGSMAKKVKRLLKKQVVRIMSCSPDTQCSRDHSMEDPDKKGESKTKSEAESASPEETPDGSASPVEMQDEGAEEPHEAGEQLPPFLLKEGRDDRLHSAEQDADDEAADDTDDTSSVTSSASSTTSSQSGSGTSRKKSIPLSIKNLKRKHKRKKNKITRDFKPGDRVAVEVVTTMTSADVMWQDGSVECNIRSNDLFPVHHLDNNEFCPGDFVVDKRVQSCPDPAVYGVVQSGDHIGRTCMVKWFKLRPSGDDVELIGEEEDVSVYDIADHPDFRFRTTDIVIRIGNTEDGAPHKEDEPSVGQVARVDVSSKVEVVWADNSKTIILPQHLYNIESEIEESDYDSVEGSTSGASSDEWEDDSDSWETDNGLVEDEHPKIEEPPIPPLEQPVAPEDKGVVISEEAATAAVQGAVAMAAPMAGLMEKAGKDGPPKSFRELKEAIKILESLKNMTVEQLLTGSPTSPTVEPEKPTREKKFLDDIKKLQENLKKTLDNVAIVEEEKMEAVPDVERKEDKPEGQSPVKAEWPSETPVLCQQCGGKPGVTFTSAKGEVFSVLEFAPSNHSFKKIEFQPPEAKKFFSTVRKEMALLATSLPEGIMVKTFEDRMDLFSALIKGPTRTPYEDGLYLFDIQLPNIYPAVPPHFCYLSQCSGRLNPNLYDNGKVCVSLLGTWIGKGTERWTSKSSLLQVLISIQGLILVNEPYYNEAGFDSDRGLQEGYENSRCYNEMALIRVVQSMTQLVRRPPEVFEQEIRQHFSTGGWRLVNRIESWLETHALLEKAQALPNGVPKASSSPEPPAVAELSDSGQQEPEDGGPAPGEASQGSDSEGGAQGLASASRDHTDQTSETAPDASVPPSVKPKKRRKSYRSFLPEKSGYPDIGFPLFPLSKGFIKSIRGVLTQFRAALLEAGMPECTEDK

What was measured:
[1] = target: T1, DCBLD1-MYC-FLAG (human Discoidin, CUB, and LCCL domain-containing protein 1) (human); experiment: affinity purification with mass spectrometry; SILAC; alpha-FLAG Affinity Gel immunoprecipitation of DCBLD1-FLAG or DCBLD2-FLAG from transfected HEK 293 lysates (BCLB, overnight, 4 C), expressed alone (light) or with ABL or FYN (heavy; FYN with DCBLD2 only); SDS-PAGE, tryptic digest, LC-MS/MS; three biological replicates; proteins found in mock, ABL-alone and FYN-alone controls removed
[2] = target: T2, DCBLD2-FLAG-MYC (full-length human Discoidin, CUB, and LCCL domain-containing protein 2) (human); experiment: as above
[3] = target: T2, DCBLD2-FLAG-MYC (full-length human Discoidin, CUB, and LCCL domain-containing protein 2) (human); experiment: affinity purification with mass spectrometry; FLAG-tagged DCBLD2 immunoprecipitated from HEK cells expressing DCBLD2 alone or with ABL, immune complexes washed three times with BCLB and incubated with adult zebrafish extracts overnight; SDS-PAGE, LC-MS/MS; peptides unique to zebrafish extracted; the resin also carries co-precipitated human proteins; only the target purified
[4] = target: T2, DCBLD2-FLAG-MYC (full-length human Discoidin, CUB, and LCCL domain-containing protein 2) (human); experiment: affinity purification with mass spectrometry; SILAC; alpha-FLAG Affinity Gel immunoprecipitation of DCBLD1-FLAG or DCBLD2-FLAG from transfected HEK 293 lysates (BCLB, overnight, 4 C), expressed alone (light) or with ABL or FYN (heavy; FYN with DCBLD2 only); SDS-PAGE, tryptic digest, LC-MS/MS; three biological replicates; proteins found in mock, ABL-alone and FYN-alone controls removed; remark: listed apart in the source
[5] = target: T1, DCBLD1-MYC-FLAG (human Discoidin, CUB, and LCCL domain-containing protein 1) (human); experiment: as above; remark: listed apart in the source

Row | Molecule | binding [1] | binding [2] | other results
1 | Ca2+/calmodulin-dependent protein kinase type-II β (CaMK-IIβ) (from UniProt Q13554 1-666) (enzyme) | binds | binds | –
2 | calnexin (CANX) (from UniProt P27824 21-592) | – | binds | –
3 | FYN (from UniProt P06241 1-537) (enzyme) | – | binds | –
4 | Ca2+/calmodulin-dependent protein kinase type-II δ (CaMK-IIδ) (from UniProt Q13557 1-499) (enzyme) | binds | binds | –
5 | zebrafish CaMKIIδ (enzyme) | – | – | binding [3]: binds
6 | C-terminal ubiquitin hydrolase FAF-Y (USP9Y) (from UniProt O00507 1-2555) (enzyme) | binds | – | –
7 | zebrafish CRKL | – | – | binding [3]: binds
8 | CT10 regulator of kinase (CRK) (from UniProt P46108 1-304) | binds | binds | –
9 | UDP-glucose:glycoprotein glucosyltransferase 1 (UGGT1) (from UniProt Q9NYU2 43-1555) (enzyme) | – | binds | –
10 | 14-3-3β (endogenous) (from UniProt P31946 1-246) | – | binds | –
11 | 14-3-3ε (endogenous) (from UniProt P62258 1-255) | binds | binds | –
12 | zebrafish CRK | – | – | binding [3]: binds
13 | 14-3-3ζ (endogenous) (from UniProt P63104 1-245) | – | binds | –
14 | zebrafish CaMKII γ subunit (enzyme) | – | – | binding [3]: binds
15 | CRK-like (CRKL) (from UniProt P46109 1-303) | binds | binds | –
16 | B1 | – | – | binding [4]: binds
17 | B2 | – | – | binding [5]: binds
